Here are results for two molecules from doi:10.1101/802678.

What all share (assay): affinity purification with mass spectrometry
In test [1] the target is T1, GFP-DAR1 (Arabidopsis thaliana) (UniProt Q8W4F0).
T1 sequence: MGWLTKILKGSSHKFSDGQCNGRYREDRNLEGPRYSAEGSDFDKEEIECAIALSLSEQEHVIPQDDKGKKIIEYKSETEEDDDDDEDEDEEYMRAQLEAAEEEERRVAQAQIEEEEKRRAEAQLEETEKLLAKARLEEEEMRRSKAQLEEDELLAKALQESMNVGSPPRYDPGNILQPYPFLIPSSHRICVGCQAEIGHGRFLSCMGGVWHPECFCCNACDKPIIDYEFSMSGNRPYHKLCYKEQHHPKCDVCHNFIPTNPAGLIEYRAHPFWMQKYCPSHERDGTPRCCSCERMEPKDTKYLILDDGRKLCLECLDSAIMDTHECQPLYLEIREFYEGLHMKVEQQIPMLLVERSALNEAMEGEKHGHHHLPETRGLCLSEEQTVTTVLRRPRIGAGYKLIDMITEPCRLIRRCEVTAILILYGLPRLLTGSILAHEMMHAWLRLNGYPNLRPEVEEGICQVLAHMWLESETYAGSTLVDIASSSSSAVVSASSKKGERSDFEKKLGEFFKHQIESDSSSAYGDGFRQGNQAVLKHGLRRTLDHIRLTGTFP

Test [2] has as its target T2, GFP-DA1 (Arabidopsis thaliana) (UniProt P0C7Q8).
T2 sequence: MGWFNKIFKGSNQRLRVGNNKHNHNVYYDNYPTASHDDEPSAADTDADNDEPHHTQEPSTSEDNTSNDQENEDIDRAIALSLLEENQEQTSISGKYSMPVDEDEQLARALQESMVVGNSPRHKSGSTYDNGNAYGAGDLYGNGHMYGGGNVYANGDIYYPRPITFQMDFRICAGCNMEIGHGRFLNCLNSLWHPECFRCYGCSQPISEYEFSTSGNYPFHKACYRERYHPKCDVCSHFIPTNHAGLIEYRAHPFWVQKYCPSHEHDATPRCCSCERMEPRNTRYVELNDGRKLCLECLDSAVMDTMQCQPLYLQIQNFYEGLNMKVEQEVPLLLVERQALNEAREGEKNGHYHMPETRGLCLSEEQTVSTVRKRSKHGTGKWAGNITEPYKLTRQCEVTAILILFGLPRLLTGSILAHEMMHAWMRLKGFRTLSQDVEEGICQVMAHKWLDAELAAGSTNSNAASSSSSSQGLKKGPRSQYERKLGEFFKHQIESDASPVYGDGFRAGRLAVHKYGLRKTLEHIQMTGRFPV

Test [3] addresses T3, GFP-DAR2 (Arabidopsis thaliana) (UniProt Q0WSN2).
T3 sequence: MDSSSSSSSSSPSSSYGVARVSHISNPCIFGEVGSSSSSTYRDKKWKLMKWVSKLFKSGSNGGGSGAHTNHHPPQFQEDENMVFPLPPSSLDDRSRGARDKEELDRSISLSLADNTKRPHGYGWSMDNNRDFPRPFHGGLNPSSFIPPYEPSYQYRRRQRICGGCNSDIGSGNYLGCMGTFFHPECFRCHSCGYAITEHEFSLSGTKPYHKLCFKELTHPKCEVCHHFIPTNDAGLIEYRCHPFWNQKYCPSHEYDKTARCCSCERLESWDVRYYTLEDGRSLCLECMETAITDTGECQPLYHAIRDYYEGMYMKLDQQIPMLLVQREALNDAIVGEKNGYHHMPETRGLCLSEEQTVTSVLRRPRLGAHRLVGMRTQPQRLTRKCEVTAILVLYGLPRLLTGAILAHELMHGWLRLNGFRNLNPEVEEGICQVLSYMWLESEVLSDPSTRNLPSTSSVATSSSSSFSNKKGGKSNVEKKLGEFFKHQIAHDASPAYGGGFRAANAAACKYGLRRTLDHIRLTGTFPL

No constants are given. Whether binding was seen depends on the method and setting. In cells and extracts the contact can be indirect. A yes stands for co-enrichment or nearness to the bait. Other partners may have been found. Where a sequence is shown, tags or fusion partners need not be part of it.

B1: UBP13 (enzyme, UniProt Q84WU2 1-1115)
chain: MTMMTPPPLDQQEDEEMLVPNPDLVEGPQPMEVAQTDPAATAVENPPPEDPPSLKFTWTIPMFTRLNTRKHYSDVFVVGGYKWRILIFPKGNNVDHLSMYLDVADAANLPYGWSRYSQFSLAVVNQVNNRYSIRKETQHQFNARESDWGFTSFMPLSELYEPTRGYLVNDTVLIEAEVAVRKVLDYWSYDSKKETGFVGLKNQGATCYMNSLLQTLYHIPYFRKAVYHMPTTENDAPTASIPLALQSLFYKLQYNDTSVATKELTKSFGWDTYDSFMQHDVQELNRVLCEKLEDKMKGTVVEGTIQKLFEGHHMNYIECINVDYKSTRKESFYDLQLDVKGCKDVYASFDKYVEVERLEGDNKYHAEGHDLQDAKKGVLFIDFPPVLQLQLKRFEYDFMRDTMVKINDRYEFPLQLDLDREDGRYLSPDADKSVRNLYTLHSVLVHSGGVHGGHYYAFIRPTLSDQWYKFDDERVTKEDVKRALEEQYGGEEELPQNNPGFNNPPFKFTKYSNAYMLVYIRESDKDKIICNVDEKDIAEHLRVRLKKEQEEKEDKRKYKAQAHLFTTIKVARDDDITEQIGKNIYFDLVDHEKVRSFRIQKQTPFQQFKEEVAKEFGVPVQLQRFWIWAKRQNHTYRPNRPLSPNEELQTVGQIREASNKANNAELKLFLEIERGPDDLPIPPPEKTSEDILLFFKLYDPENAVLRYVGRLMVKSSSKPMDIVGQLNKMAGFAPDEEIELFEEIKFEPCVMCEQIDKKTSFRLCQIEDGDIICYQKPLSIEESEFRYPDVPSFLEYVQNRELVRFRTLEKPKEDEFTMELSKLHTYDDVVERVAEKLGLDDPSKLRLTSHNCYSQQPKPQPIKYRGVDHLSDMLVHYNQTSDILYYEVLDIPLPELQGLKTLKVAFHSATKDEVIIHNIRLPKQSTVGDVINELKTKVELSHQDAELRLLEVFFHKIYKIFPSTERIENINDQYWTLRAEEIPEEEKNIGPNDRLIHVYHFTKEAGQNQQVQNFGEPFFLVIHEGETLEEIKTRIQKKLHVPDEDFAKWKFASFSMGRPDYLLDTDVVYNRFQRRDVYGAWEQYLGLEHIDNAPKRAYAANQNRHAYEKPVKIYN
In the case of B1, the binding entry in test [1] and in test [2] was “binds” in each case.

B2: UBIQUITIN-SPECIFIC PROTEASE 12 (enzyme, UniProt Q9FPT1 1-1116)
chain: MTMMTPPPVDQPEDEEMLVPNSDLVDGPAQPMEVTQPETAASTVENQPAEDPPTLKFTWTIPNFSRQNTRKHYSDVFVVGGYKWRILIFPKGNNVDHLSMYLDVSDAASLPYGWSRYAQFSLAVVNQIHTRYTVRKETQHQFNARESDWGFTSFMPLSELYDPSRGYLVNDTVLVEAEVAVRKVLDYWSYDSKKETGFVGLKNQGATCYMNSLLQTLYHIPYFRKAVYHMPTTENDAPTASIPLALQSLFYKLQYNDTSVATKELTKSFGWDTYDSFMQHDVQELNRVLCEKLEDKMKGTVVEGTIQQLFEGHHMNYIECINVDFKSTRKESFYDLQLDVKGCKDVYASFDKYVEVERLEGDNKYHAEGHGLQDAKKGVLFIDFPPVLQLQLKRFEYDFMRDTMVKINDRYEFPLELDLDREDGKYLSPDADRSVRNLYTLHSVLVHSGGVHGGHYYAFIRPTLSDQWYKFDDERVTKEDLKRALEEQYGGEEELPQTNPGFNNNPPFKFTKYSNAYMLVYIRESDKDKIICNVDEKDIAEHLRVRLKKEQEEKEDKRRYKAQAHLYTIIKVARDEDLKEQIGKDIYFDLVDHDKVRSFRIQKQTPFQQFKEEVAKEFGVPVQLQRFWIWAKRQNHTYRPNRPLTPQEELQPVGQIREASNKANTAELKLFLEVEHLDLRPIPPPEKSKEDILLFFKLYDPEKAVLSYAGRLMVKSSSKPMDITGKLNEMVGFAPDEEIELFEEIKFEPCVMCEHLDKKTSFRLCQIEDGDIICFQKPLVNKEIECLYPAVPSFLEYVQNRQLVRFRALEKPKEDEFVLELSKQHTYDDVVEKVAEKLGLDDPSKLRLTSHNCYSQQPKPQPIKYRGVDHLSDMLVHYNQTSDILYYEVLDIPLPELQGLKTLKVAFHHATKEEVVIHNIRLPKQSTVGDVINELKTKVELSHPDAELRLLEVFYHKIYKIFPSTERIENINDQYWTLRAEEIPEEEKNIGPNDRLILVYHFAKETGQNQQVQNFGEPFFLVIHEGETLEEIKNRIQKKLHVSDEDFAKWKFAFMSMGRPEYLQDTDVVYNRFQRRDVYGAFEQYLGLEHADTTPKRAYAANQNRHAYEKPVKIYN
B2: the binding result in test [1], in test [3] and in test [2] was “binds” in each case.
